# Test results from PubChem BioAssay AID624291 (National Center for Advancing Translational Sciences (NCATS), 2012).
# The campaign covered roughly 350,000 compounds. About 220 (0.063%) were called active. The shares of active, inactive and inconclusive entries below differ from those in the screen. Calls follow the shape of the dose curve; as a rule, active = well fitted activation curve with a large enough effect; inconclusive = small, poorly fitted or top-dose-only effect; inactive = no such curve, though single readings can be large or run the other way. Potencies beside an inconclusive call are fits to weak or partial responses and may not hold up.
# Test: qHTS for Activators of Integrin-Mediated Alleviation for Muscular Dystrophy; also: nearly all actives have a fitted effect of over 60% in size;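 as to activation: 100% = response of the positive control SU9516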
# Conditions: alpha7betagal myoblasts, beta-gal FDG fluorescence, 48 h; activation: at 38.3 µM (top of the series)
# In short: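 Alpha7betagal+/- myoblasts (passage 13) were plated 16-24 hr, then exposed to compounds (1:260 dilution of DMSO stock) for 48 hours at 37C. After MPER lysis, β-galactosidase reporter activity was read as FDG fluorescence (ex 480/em 540) after 30 minutes.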
# Potency is read from the fitted curve at half-maximal effect.
SMILES,Potency,activation
CCN(CC)S(=O)(=O)c1ccc(S(=O)(=O)N2CCC(N3CCCCC3)CC2)cc1,"inconclusive: 12.6 µM [activator, single point]",
CNC(=O)NNC(=O)c1csc(Cc2c(Cl)sc3ccc(Cl)cc23)n1,"inconclusive: 11.2 µM [activator, partial curve, poor fit]",
Cc1ccc(-c2[nH]ncc2/C=N/n2c(COc3ccccc3)nc3ccccc3c2=O)cc1,,inactive: -50.6%
Cn1nccc1NC(=O)Nc1ccc(OC(F)(F)F)cc1,"inconclusive: 3.55 µM [activator, single point]",
O=C1NC(=Nc2ccccc2)CS1,"inconclusive: 2.82 µM [activator, single point]",
COc1ccc(NC(=O)c2cc3cc(OC)ccc3oc2=N)cc1,"inconclusive: 11.2 µM [activator, partial curve, poor fit]",
COc1cccc(CNC(=O)CN2C(=O)COc3ccc(S(=O)(=O)N4CCC(C)CC4)cc32)c1,"inconclusive: 5.01 µM [activator, single point]",
O=C(CC(=O)Nc1ccc(F)cc1F)Nc1ccc(F)cc1F,"inconclusive: 1.78 µM [activator, full curve, poor fit]",
O=C(NC(=S)Nc1ccccn1)c1ccccc1,,inactive: -9.24%
CCOC(=O)c1sc(-c2ccc(Cl)cc2Cl)nc1O,"inconclusive: 2.82 µM [activator, partial curve, poor fit]",
O=C(O)/C=C\c1cn(-c2ccccc2)nc1-c1cc2ccccc2o1,"inconclusive: 11.2 µM [activator, single point]",
CCCN1CCc2c(sc3nc(SCC)n(-c4ccc(OC)cc4)c(=O)c23)C1,"inconclusive: 5.01 µM [activator, single point]",
C=CCN1CN(S(=O)(=O)c2cccc(Cl)c2)c2nc3ccccc3nc21,"inconclusive: 20 µM [activator, single point]",
O=C(NNc1nc2ccccc2o1)c1ccccc1,,inactive: -19.4%
CCCCN(C)C(=O)C1CCN(Cc2cccc(OCc3ccccc3)c2)CC1,,inactive: -54.2%
Cc1cccc(N2CCN(C(=O)c3cccc(N4CCCC4=O)c3)CC2)c1C,,inactive: -10.6%
Cc1cnc(NC2=NCCC2)s1,,inactive: -1.32%
COc1ccc2nc(SCCN(C)C)[nH]c2c1,"inconclusive: 10 µM [activator, partial curve, poor fit]",
CCOC(=O)c1c(C)[nH]c(N=Nc2cccc(C)c2)c1C,"inconclusive: 3.16 µM [activator, single point]",
CCOc1ccccc1NC(=O)NCc1ccccc1,"inconclusive: 11.2 µM [activator, single point]",
CC(C)[C@H](NC(=O)c1ccco1)C(=O)N(C)Cc1c(F)cccc1Cl,"inconclusive: 28.2 µM [activator, single point]",
COCCN1C(=O)C(=O)/C(=C(/O)c2ccc(C)cc2)C1c1ccccn1 (stereo not drawn),"inconclusive: 28.2 µM [activator, single point]",
CCCCOc1ccc(C(=O)OC2CC(C)N(C)CC2C)cc1 (stereo not drawn),,inactive: -52.4%

SMILES,Potency,activation
CC(C)(C)c1ccc(S(=O)(=O)Nc2ccc(Cc3ccncc3)cc2)cc1,"inconclusive: 5.01 µM [activator, partial curve, poor fit]",
Cc1ccc(-c2nnc(Nc3cccc(O)c3)c3ccccc23)cc1S(=O)(=O)NCCO,"inconclusive: 3.98 µM [activator, single point]",
Cc1onc(-c2ccccc2)c1NC(=O)N(CCC#N)Cc1cccs1,"inconclusive: 5.01 µM [activator, single point]",
COCC(C)N1CCC(Oc2cccc(C(=O)NCCc3ccccc3)c2)CC1 (stereo not drawn),"inconclusive: 5.01 µM [activator, partial curve, poor fit]",
S=C(NCc1ccc(Cl)cc1)NC1CCN(Cc2ccccc2)CC1,,inactive: -52.1%
CCOc1ccc(S(=O)(=O)N2CCN(C)CC2)cc1NC(=O)c1ccccc1F,,inactive: 9.43%
CCC(=O)Nc1ccc(Cl)c(-c2nc3ncccc3o2)c1,"inconclusive: 2.24 µM [activator, single point]",
O=S(=O)(Nc1nc2ccccc2nc1Cl)c1ccccc1C(F)(F)F,"inconclusive: 8.91 µM [activator, partial curve, poor fit]",
Cc1ccc(S(=O)(=O)NCCCCCC(=O)NC(C)(C)CO)cc1,"inconclusive: 28.2 µM [activator, single point]",
O=C(CCCN1C(=O)C2CCCCN2C1=O)N1CCN(c2ccc([N+](=O)[O-])cc2)CC1 (stereo not drawn),,inactive: -19.7%
Cn1c(=O)c2c(nc(Sc3ccccc3N)n2C)n(C)c1=O,"inconclusive: 3.55 µM [activator, partial curve, poor fit]",
CCN(CC(=O)Nc1cc(Cl)ccc1C)C(=O)c1oc2ccc(OC)cc2c1C,"inconclusive: 1 µM [activator, partial curve, poor fit]",
OC(c1ccccc1)(c1ccccc1)c1ccn[nH]1,,inactive: -1.95%
Cc1cc(C)cc(NC(=S)Nc2cccc3ccccc23)c1,"inconclusive: 3.16 µM [activator, single point]",
O=C(O)c1ccc([N+](=O)[O-])c(CS(=O)(=O)c2ccccc2)c1,,inactive: 7.16%
CCn1cc(C(=O)NCCC(C)C)c(=O)c2cc(S(=O)(=O)N3CCCCC3)ccc21,"inconclusive: 5.01 µM [activator, single point]",
Cc1cccc(-n2nc3c([n+]2[O-])CCc2nonc2-3)c1C,"inconclusive: 0.447 µM [activator, partial curve, poor fit]",
CC12CC3CC(C)(C1)CC(C(=O)NCc1ccncc1)(C3)C2,"inconclusive: 4.47 µM [activator, single point]",
O=C1C2C3C=CC(C2C(=O)N1c1cccc(O)c1)C1C2C(=O)N(c4cccc(O)c4)C(=O)C2C31 (stereo not drawn),"inconclusive: 12.6 µM [activator, partial curve, poor fit]",
O=c1oc2ccccc2c(NC2CCCCC2)c1NS(=O)(=O)c1ccc(F)cc1,"inconclusive: 2 µM [activator, partial curve, poor fit]",
FC(F)(F)c1cccc(-c2nnc3ccc(C(F)(F)F)cn23)c1,"inconclusive: 2.82 µM [activator, single point]",
CC1C(=O)N2CCCc3cc(NC(=O)CC(C)(C)C)cc1c32 (stereo not drawn),"inconclusive: 28.2 µM [activator, partial curve, poor fit]",
COc1ccc(CCC(=O)Nc2ncc(C)s2)cc1,"inconclusive: 2 µM [activator, single point]",

# A run of entries taken from the entries so far:
SMILES,Potency,activation
Cc1ccc(S(=O)(=O)NCCCCCC(=O)NC(C)(C)CO)cc1,"inconclusive: 28.2 µM [activator, single point]",
O=C(CCCN1C(=O)C2CCCCN2C1=O)N1CCN(c2ccc([N+](=O)[O-])cc2)CC1 (stereo not drawn),,inactive: -19.7%

# Later entries

SMILES,Potency,activation
CC(=O)Nc1ccc2c(c1)Cc1c-2cc(Br)c(N)c1Br,,inactive: 28.3%
Cc1ccc2c(c1)N(C(=O)NC1CCCCC1)C(C)(C)CC2C (stereo not drawn),,inactive: 2.09%
CC(C)CCOc1ccc(C(=O)N2CCN(c3ncccn3)CC2)cc1,"inconclusive: 11.2 µM [activator, single point]",
COc1cccc(OCC(O)CNC(C)c2ccccc2)c1 (stereo not drawn),"inconclusive: 5.01 µM [activator, single point]",
COc1ccccc1-n1c(-c2ccc(F)cc2)coc1=O,"inconclusive: 1.12 µM [activator, partial curve, poor fit]",
CCOC(=O)C1=NOC2COC3(CCN(c4ncccn4)CC3)OCC12 (stereo not drawn),,inconclusive: 0.69% [activator]
CC(C)(C)NC(=O)C1c2ccccc2Oc2ccccc21,"inconclusive: 11.2 µM [activator, partial curve, poor fit]",
COC(CNC(=O)c1ccc2c(=O)n(Cc3ccc4c(c3)OCO4)c(=S)[nH]c2c1)OC,"inconclusive: 2.51 µM [activator, single point]",
COc1cc(C(=O)Oc2cc(N)n(S(=O)(=O)c3ccc(F)cc3)n2)cc(OC)c1OC,"inconclusive: 2 µM [activator, full curve, poor fit]",
O=C(O)c1ccccc1-c1ccc(/C=C2\SC(=O)N(c3ccccc3)C2=O)o1,"inconclusive: 5.01 µM [activator, single point]",
CC1CCCCN1C(=S)NC(=O)c1ccco1 (stereo not drawn),,inactive: -22.7%
CSCCC(NC(=O)c1ccccc1Br)C(=O)NCC1CCCCC1 (stereo not drawn),"inconclusive: 14.1 µM [activator, single point]",
CCOC(=O)c1cc2c(ccn2C)n1CC(=O)N1CCN(c2cccc(C(F)(F)F)c2)CC1,,inactive: 17.4%
Cc1ccc(N=C2NC(=O)/C(=C\c3ccco3)S2)cc1,,inactive: 0.0857%
COCC(=O)Nc1ccc(N2CCOCC2)c(S(=O)(=O)Nc2ccccc2OC)c1,,inactive: -0.4%
CC1=C(C(=O)OCC2CCCO2)C(c2ccc(Cl)cc2)NC(=O)N1 (stereo not drawn),"inconclusive: 5.01 µM [activator, single point]",
CCOC(=O)C1=C(C)NC(C)=C(C(=O)OCC)C1c1ccc(Br)o1,"inconclusive: 10 µM [activator, single point]",
CC1=C(C(=O)OC(C)C)C(c2ccc(Cl)cc2)n2c(s/c(=C\c3ccc(OCC(=O)O)cc3)c2=O)=N1 (stereo not drawn),"inconclusive: 28.2 µM [activator, single point]",
Cc1cccc(CS(=O)(=O)Cc2ccc(C(=O)NCCCN3CCOCC3)o2)c1,,inactive: 12.4%
CCOc1ccc(S(=O)(=O)NCCc2cn3ccccc3n2)cc1,"inconclusive: 5.01 µM [activator, single point]",
Cc1ccccc1NC(=O)c1cc2c(=O)n3cccc(C)c3nc2s1,"inconclusive: 28.2 µM [activator, single point]",
O=C(CNC(=O)c1ccccc1)OCc1ccc([N+](=O)[O-])cc1,"inconclusive: 22.4 µM [activator, single point]",
